Sequences of proteins named here, by UniProt entry; tags and fusion partners are left off.
UniProt Q9Y463, whole entry: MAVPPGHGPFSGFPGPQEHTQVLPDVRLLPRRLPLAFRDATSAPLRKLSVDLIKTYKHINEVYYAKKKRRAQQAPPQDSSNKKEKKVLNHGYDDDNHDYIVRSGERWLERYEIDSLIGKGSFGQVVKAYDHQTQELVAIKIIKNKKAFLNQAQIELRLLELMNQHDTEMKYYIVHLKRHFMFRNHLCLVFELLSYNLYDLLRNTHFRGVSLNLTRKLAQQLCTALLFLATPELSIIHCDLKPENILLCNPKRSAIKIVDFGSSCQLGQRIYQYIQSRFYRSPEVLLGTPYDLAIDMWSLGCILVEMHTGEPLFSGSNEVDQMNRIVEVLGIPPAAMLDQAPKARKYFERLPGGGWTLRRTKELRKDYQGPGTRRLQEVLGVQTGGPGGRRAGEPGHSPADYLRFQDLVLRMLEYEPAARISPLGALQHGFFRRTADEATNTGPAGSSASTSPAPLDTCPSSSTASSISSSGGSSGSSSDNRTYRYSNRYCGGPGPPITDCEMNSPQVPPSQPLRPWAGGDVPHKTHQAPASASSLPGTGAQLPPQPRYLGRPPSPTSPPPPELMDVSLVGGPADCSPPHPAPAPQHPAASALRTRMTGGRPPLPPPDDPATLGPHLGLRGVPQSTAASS

In ChEMBL document CHEMBL5143696, “Discovery of novel benzothiophene derivatives as potent and narrow spectrum inhibitors of DYRK1A and DYRK1B” (Bioorg Med Chem Lett, 2022):

Key:
[1] = molecular target: T1, Dual specificity tyrosine-phosphorylation-regulated kinase 1B (Homo sapiens, UniProt Q9Y463); assay: Inhibition of human DYRK1B incubated for 130 mins in presence of ATP by ADP-Glo kinase assay
[2] = molecular target: T1, Dual specificity tyrosine-phosphorylation-regulated kinase 1B; assay: Inhibition of NanoLuc-fused human DYRK1B expressed in HEK293T cells using Nano-Glo as substrate incubated for 2 hrs by NanoBRET assay; assay type: cell-based

Q: For `COc1cc(N2CCN(C)CC2)ccc1Nc1nccc(-c2cn(C)c3cnccc23)n1`, which Ki [1] is on record?
A: 11.2 nM

Q: What about the IC50 [2] of the same compound?
A: 81 nM
